Measurements as given in article doi:10.1101/761346.
Results are given in words; binding and its absence hold for the method and conditions named. For some assays here: Binding seen in cells or lysates may run through a third protein. For some assays here: Tags and fused reporters may be left off the sequences shown. Some results given as binding are weak or reduced against the parent protein; the word gives no strength.

T1: RECEPTOR LIKE KINASE 7 (RLK7) fused to GFP (Arabidopsis thaliana) (UniProt F4I2N7)
T1 sequence: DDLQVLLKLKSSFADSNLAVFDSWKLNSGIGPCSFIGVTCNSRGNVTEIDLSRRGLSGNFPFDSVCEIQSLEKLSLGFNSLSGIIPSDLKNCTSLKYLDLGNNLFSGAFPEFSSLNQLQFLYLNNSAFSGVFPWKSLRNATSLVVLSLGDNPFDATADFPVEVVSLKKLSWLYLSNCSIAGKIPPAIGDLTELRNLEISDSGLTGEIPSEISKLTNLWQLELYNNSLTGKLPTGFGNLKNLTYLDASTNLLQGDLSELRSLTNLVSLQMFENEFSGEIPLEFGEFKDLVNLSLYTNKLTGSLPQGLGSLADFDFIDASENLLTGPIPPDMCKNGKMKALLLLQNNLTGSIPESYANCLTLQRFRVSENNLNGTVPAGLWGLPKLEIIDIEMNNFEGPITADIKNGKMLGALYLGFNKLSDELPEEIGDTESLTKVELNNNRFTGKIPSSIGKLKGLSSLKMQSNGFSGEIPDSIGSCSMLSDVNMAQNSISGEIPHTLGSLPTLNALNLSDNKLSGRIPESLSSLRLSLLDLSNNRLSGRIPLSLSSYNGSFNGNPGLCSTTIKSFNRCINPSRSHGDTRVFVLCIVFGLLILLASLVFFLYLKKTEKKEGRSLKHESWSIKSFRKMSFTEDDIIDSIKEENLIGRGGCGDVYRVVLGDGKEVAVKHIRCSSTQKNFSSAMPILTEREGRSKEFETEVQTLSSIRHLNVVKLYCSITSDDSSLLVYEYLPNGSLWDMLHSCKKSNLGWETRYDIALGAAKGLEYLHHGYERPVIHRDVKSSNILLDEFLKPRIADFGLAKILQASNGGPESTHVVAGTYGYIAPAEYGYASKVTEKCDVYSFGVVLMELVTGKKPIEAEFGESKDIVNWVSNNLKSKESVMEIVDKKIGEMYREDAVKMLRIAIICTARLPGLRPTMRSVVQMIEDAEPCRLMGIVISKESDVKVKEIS

T2: extracellular domain of HSL2, bait (Arabidopsis thaliana) (UniProt C0LGX3)
T2 sequence: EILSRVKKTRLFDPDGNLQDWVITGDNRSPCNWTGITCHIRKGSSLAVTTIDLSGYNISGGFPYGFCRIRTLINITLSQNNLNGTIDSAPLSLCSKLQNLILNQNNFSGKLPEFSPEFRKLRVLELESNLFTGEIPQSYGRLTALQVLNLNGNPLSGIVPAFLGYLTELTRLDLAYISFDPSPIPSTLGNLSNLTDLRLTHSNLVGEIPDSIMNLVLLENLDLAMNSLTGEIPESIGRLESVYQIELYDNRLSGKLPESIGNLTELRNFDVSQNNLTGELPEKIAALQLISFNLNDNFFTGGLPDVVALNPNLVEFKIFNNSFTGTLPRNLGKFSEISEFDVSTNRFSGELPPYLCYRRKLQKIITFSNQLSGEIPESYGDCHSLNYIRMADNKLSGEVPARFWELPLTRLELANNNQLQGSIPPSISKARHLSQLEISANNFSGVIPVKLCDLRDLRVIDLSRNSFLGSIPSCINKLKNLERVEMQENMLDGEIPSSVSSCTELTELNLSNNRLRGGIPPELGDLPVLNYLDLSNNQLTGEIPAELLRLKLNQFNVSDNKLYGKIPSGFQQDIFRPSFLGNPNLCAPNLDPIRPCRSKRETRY


Tests used:
[1] = molecular target: T1, RECEPTOR LIKE KINASE 7 (RLK7) fused to GFP (Arabidopsis thaliana); assay: FRET or BRET
[2] = molecular target: T2, extracellular domain of HSL2, bait (Arabidopsis thaliana); assay: extracellular interaction assay

| binding [1] | binding [2] | Binder |
| --- | --- | --- |
| no binding |  | HAESA (HAE) fused to mCherry (receptor, UniProt P47735 15-999) YLPSLSLNQDATILRQAKLGLSDPAQSLSSWSDNNDVTPCKWLGVSCDATSNVVSVDLSSFMLVGPFPSILCHLPSLHSLSLYNNSINGSLSADDFDTCHNLISLDLSENLLVGSIPKSLPFNLPNLKFLEISGNNLSDTIPSSFGEFRKLESLNLAGNFLSGTIPASLGNVTTLKELKLAYNLFSPSQIPSQLGNLTELQVLWLAGCNLVGPIPPSLSRLTSLVNLDLTFNQLTGSIPSWITQLKTVEQIELFNNSFSGELPESMGNMTTLKRFDASMNKLTGKIPDNLNLLNLESLNLFENMLEGPLPESITRSKTLSELKLFNNRLTGVLPSQLGANSPLQYVDLSYNRFSGEIPANVCGEGKLEYLILIDNSFSGEISNNLGKCKSLTRVRLSNNKLSGQIPHGFWGLPRLSLLELSDNSFTGSIPKTIIGAKNLSNLRISKNRFSGSIPNEIGSLNGIIEISGAENDFSGEIPESLVKLKQLSRLDLSKNQLSGEIPRELRGWKNLNELNLANNHLSGEIPKEVGILPVLNYLDLSSNQFSGEIPLELQNLKLNVLNLSYNHLSGKIPPLYANKIYAHDFIGNPGLCVDLDGLCRKITRSKNIGYVWILLTIFLLAGLVFVVGIVMFIAKCRKLRALKSSTLAASKWRSFHKLHFSEHEIADCLDEKNVIGFGSSGKVYKVELRGGEVVAVKKLNKSVKGGDDEYSSDSLNRDVFAAEVETLGTIRHKSIVRLWCCCSSGDCKLLVYEYMPNGSLADVLHGDRKGGVVLGWPERLRIALDAAEGLSYLHHDCVPPIVHRDVKSSNILLDSDYGAKVADFGIAKVGQMSGSKTPEAMSGIAGSCGYIAPEYVYTLRVNEKSDIYSFGVVLLELVTGKQPTDSELGDKDMAKWVCTALDKCGLEPVIDPKLDLKFKEEISKVIHIGLLCTSPLPLNRPSMRKVVIMLQEVSGAVPCSSPNTSKRSKTGGKLSPYYTEDLNSV |
|  | binds | extracellular domain of RLK7, prey (domain or fragment, UniProt F4I2N7 29-608) DDLQVLLKLKSSFADSNLAVFDSWKLNSGIGPCSFIGVTCNSRGNVTEIDLSRRGLSGNFPFDSVCEIQSLEKLSLGFNSLSGIIPSDLKNCTSLKYLDLGNNLFSGAFPEFSSLNQLQFLYLNNSAFSGVFPWKSLRNATSLVVLSLGDNPFDATADFPVEVVSLKKLSWLYLSNCSIAGKIPPAIGDLTELRNLEISDSGLTGEIPSEISKLTNLWQLELYNNSLTGKLPTGFGNLKNLTYLDASTNLLQGDLSELRSLTNLVSLQMFENEFSGEIPLEFGEFKDLVNLSLYTNKLTGSLPQGLGSLADFDFIDASENLLTGPIPPDMCKNGKMKALLLLQNNLTGSIPESYANCLTLQRFRVSENNLNGTVPAGLWGLPKLEIIDIEMNNFEGPITADIKNGKMLGALYLGFNKLSDELPEEIGDTESLTKVELNNNRFTGKIPSSIGKLKGLSSLKMQSNGFSGEIPDSIGSCSMLSDVNMAQNSISGEIPHTLGSLPTLNALNLSDNKLSGRIPESLSSLRLSLLDLSNNRLSGRIPLSLSSYNGSFNGNPGLCSTTIKSFNRCINPSRSHGDTR |
